# Screening data, single-dose tests

The chains behind the UniProt entries cited, without tags or fusion partners.
UniProt P9WPC5, whole entry: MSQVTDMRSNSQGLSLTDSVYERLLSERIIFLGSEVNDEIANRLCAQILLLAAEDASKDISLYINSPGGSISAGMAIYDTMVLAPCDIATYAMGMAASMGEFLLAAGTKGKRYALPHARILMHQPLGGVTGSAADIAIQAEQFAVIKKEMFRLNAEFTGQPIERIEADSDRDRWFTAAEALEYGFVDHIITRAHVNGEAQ
UniProt P9WPC3, whole entry partner: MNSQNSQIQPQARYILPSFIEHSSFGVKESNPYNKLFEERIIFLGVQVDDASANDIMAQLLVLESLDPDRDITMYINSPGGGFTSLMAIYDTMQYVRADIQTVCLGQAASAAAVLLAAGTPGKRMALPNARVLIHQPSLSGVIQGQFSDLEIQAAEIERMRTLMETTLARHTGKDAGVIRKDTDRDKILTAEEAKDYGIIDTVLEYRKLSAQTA

From ChEMBL document CHEMBL3988442, “University of Dundee, Small-Polar-MMV Screening Library” (2021).

A: 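Assay of Toxoplasma gondii numbers, read through their beta-galactosidase reporter with a colour substrate. Tested at 10 µM. The record gives no direction; the compounds picked for IC50 retests had high values, so higher reads as fewer parasites. Size under these conditions: about 67,000 compounds, about 260 of them at 50% or above in at least one test.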
B: 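Protease assay of ClpP1P2, read by the AMC dye that it sets free. Target: ClpP1P2, Mycobacterium tuberculosis (UniProt P9WPC5 and UniProt P9WPC3). Concentration: 50 µM. Direction is inferred from only a few compounds that gave an IC50; most scored high, so higher reads as stronger inhibition. Most other retested compounds had strongly negative values. Of about 69,000 compounds tested this way, about 10 (0.015%) reached 50% or more in at least one test.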
C: 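Cell assay of Leishmania donovani living inside macrophages; the read-out is not stated. Compounds at 30 µM. Direction is inferred from retests: higher values go with stronger inhibition. About 69,000 compounds were tested under these conditions; 1.5% (about 1,000) showed 50% or more at least once.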
D: 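Whole-parasite assay of Trypanosoma brucei over 72 hours; the read-out is not stated. Compounds at 30 µM. Higher reads as stronger inhibition (inferred: compounds with an IC50 in retests scored well above the rest). Values scatter widely below zero; nearly all retest evidence comes from the higher of the two concentrations used. About 64,000 compounds were tested under these conditions; 1.5% (about 940) showed 50% or more at least once.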

Results are given as percent effect.
The controls that fix the scale are not given in the record; negative values are as filed.
The compounds are a random part of those screened.

* CCCc1nc(C)c(C(=O)NCCn2ccnc2)s1 : A: 1.959%; B: -16.78%; C: -7.791%; D: -12.66%
* COCCN1CCN(Cc2cccc(C(N)=O)c2)CC1C (stereo not drawn) : A: -4.272%; B: 12.76%; C: -22.59%; D: -37.7%
* O=C(Cc1cccs1)N1Cc2nc(CN3CCCC3)oc2C1 : A: 22.99%; B: -8.779%; C: 13.3%; D: -7.216%
* O=C(c1cccnc1)N1CCC2(CC1)CN(c1ccccn1)CCO2 : A: -13.94%; B: 10.65%; C: 15.07%; D: 18.7%
* CNC(=O)CN(C)C1CCN(c2ccc(Cl)cc2)CC1 : A: -2.126%; B: -12.77%; C: 24.19%; D: -40.52%
* O=C(O)C(F)(F)F.[H][C@@]12CNC(=O)[C@@H](C)[C@]1([H])CN(Cc1ccsc1)C2 : A: 2.534%; C: 28.53%; D: 6.927%
* Cc1ccc(F)c(OC2(C(=O)O)CCN(C(=O)c3ccco3)CC2)c1 : A: -20.3%; B: -16.85%; C: 18.34%; D: -35.97%
* CN(C)CCO[C@@H]1CC[C@H]2[C@H]1OCCN2C(=O)c1ccncc1 : B: -10.54%
* Cc1cnc(CN(C)C2CCN(CCc3ccccn3)CC2)cn1 : A: 1.831%; B: 20.08%; C: 19.89%; D: -27.24%
* CC(C)CNC(=O)CNC(=O)c1nc(Cc2c(Cl)cccc2Cl)no1 : A: 0.7588%; B: -9.326%; C: -23.28%; D: 4.849%
* O=C(CCNCC(F)(F)F)N1CCC(Nc2cccnn2)CC1 : A: -8.6%; B: 13.43%; C: -10.41%; D: -30.19%
* COc1ccccc1OC1CCN(C(=O)CCCn2ccnc2)CC1 : A: -3.042%; B: 5.055%; C: 4.543%; D: -105%
* O=C1CC(NS(=O)(=O)c2cccc(F)c2)CN1 (stereo not drawn) : A: -3.327%; B: -10.91%; C: 31.71%; D: -26.75%
* CCCc1[nH]n(C)c(=N)c1-c1ccc2c(c1)OCO2 : A: -2.537%; B: -4.245%; C: 15.69%; D: -21.37%
* Cc1ccc(S(=O)(=O)NC(CO)CC(C)C)cc1N(C)C (stereo not drawn) : A: -3.617%; B: 6.744%; C: 8.029%; D: -21.7%
* COc1nn(C)c2c1CCCN(C(=O)c1cccc3cccnc13)C2 : B: -4.95%
* O=C(O)C(F)(F)F.c1cc(-c2ccc3nc(C4CCN(CC5CC5)CC4)nn3c2)cs1 : A: 13.76%; C: 17.54%; D: -0.6154%
* CCC(O)CN1CCN(C(=O)Cc2ccccc2Cl)CC1 (stereo not drawn) : A: -16.48%; B: -30.46%; C: 23.78%
* O=C1COc2cc(C(=O)NS(=O)(=O)c3cccc(Cl)c3)ccc2N1 : A: -12.97%; B: -0.8572%; C: 8.843%; D: 13.33%
* Cc1n[nH]c(C)c1-c1cnc(CC2CCN(C)C2)cn1 (stereo not drawn) : A: -2.385%; B: 1.485%; C: -7.63%; D: 8.746%

2 of the entries, repeated:

structure	A	B	C	D
O=C1COc2cc(C(=O)NS(=O)(=O)c3cccc(Cl)c3)ccc2N1	-12.97	-0.8572	8.843	13.33
Cc1ccc(F)c(OC2(C(=O)O)CCN(C(=O)c3ccco3)CC2)c1	-20.3	-16.85	18.34	-35.97